Assay results published in patent US20070179295A1, “Triazolopyrimidines” (priority 2003, published 2007).
Some of these results come from one statement about several compounds together.

Experiments:
Assay type in all cases: in vivo
Podosphaera leucotricha = experiment: Podosphaera test (apple)/protective; details: protective, applied quantity 100 g/ha, analysis 10 days after inoculation, 100% = no infection
Sphaerotheca fuliginea = experiment: Sphaerotheca test (cucumber)/protective; details: protective, applied quantity 750 g/ha, analysis 7 days after inoculation, 100% = no infection
[1] = system: Erysiphe graminis f. sp. hordei; experiment: Erysiphe test (barley)/protective; details: protective, applied quantity 500 g/ha, analysis 7 days after inoculation, 100% = no infection
Uncinula necator = experiment: Uncinula test (grapevine)/protective; details: protective, applied quantity 100 g/ha, analysis 14 days after inoculation, 100% = no infection
Venturia inaequalis = experiment: Venturia test (apple)/protective; details: protective, applied quantity 100 g/ha, analysis 10 days after inoculation, 100% = no infection

Row | Structure (SMILES) | activity (Podosphaera leucotricha) | activity (Uncinula necator) | other results
1 | Cc1nc2nc(Cl)c(-c3ncccc3C(F)(F)F)c(N[C@@H](C)C(F)(F)F)n2n1 [Example 1, N-{5-chloro-2-methyl-6-[3-(trifluormethyl)-2-pyridinyl][1,2,4]triazolo-[1,5-a]pyrimidin-7-yl}-N-[(1S)-2,2,2-trifluor-1-methylethyl]amine] | over 90% | – | activity (Sphaerotheca fuliginea): over 90%; activity [1]: over 85%
2 | Cc1nc2nc(Cl)c(-c3ncncc3Cl)c(NC(C)C(F)(F)F)n2n1 [Example 2, N-[5-chloro-6-(5-chloro-4-pyrimidinyl)-2-methyl[1,2,4]triazolo[1,5-a]pyrimidin-7-yl]-N-[(1S)-2,2,2-trifluor-1-methylethyl]amine] | over 90% | over 90% | activity [1]: over 85%
3 | CC(Nc1c(-c2ncccc2C(F)(F)F)c(Cl)nc2nc(C3CC3)nn12)C(F)(F)F (stereo not shown) [Example 7] | over 90% | – | –
4 | CC(Nc1c(-c2ncncc2Cl)c(Cl)nc2nc(C3CC3)nn12)C(F)(F)F (stereo not shown) [Example 8] | over 90% | over 90% | activity (Venturia inaequalis): over 90%
5 | Cc1nc2nc(Cl)c(-c3ncccc3C)c(N3CCC(C)CC3)n2n1 [Example 10] | – | – | activity (Sphaerotheca fuliginea): over 90%
6 | Cc1nc2nc(Cl)c(-c3ncncc3Cl)c(NC(C)C(C)(C)C)n2n1 (stereo not shown) [Example 14] | over 90% | over 90% | –
7 | CC(C)c1nc2nc(Cl)c(-c3ncncc3Cl)c(NC(C)C(F)(F)F)n2n1 (stereo not shown) [Example 29] | over 90% | over 90% | –
8 | FC(F)(F)CNc1c(-c2ncncc2Cl)c(Cl)nc2nc(C3CC3)nn12 [Example 30] | – | – | activity [1]: over 85%
9 | CC(Nc1c(-c2cc(Cl)sc2Cl)c(Cl)nc2nc(C3CC3)nn12)C(F)(F)F (stereo not shown) [Example 46] | over 90% | – | –
10 | FC(F)(F)CNc1c(-c2cc(Cl)sc2Cl)c(Cl)nc2nc(C3CC3)nn12 [Example 47] | over 90% | – | –
11 | CC(C)c1nc2nc(Cl)c(-c3ncncc3F)c(NC(C)C(F)(F)F)n2n1 (stereo not shown) [Example 102] | – | – | activity (Venturia inaequalis): over 90%
